At least one peptide structure holds a part that was inferred or is arguable (an end, a ring closure or a residue).
Legend:
PC-3 cells = assay: Internalization into PC-3 cells; type: cell-based, human; conditions: within 30 minutes, 37° C., 25,000 CPM
[1] = system: human PC-3 cells xenografted tumor; assay: SPECT-CT imaging diagnosis in PC-3 tumor mouse model; type: in vivo; conditions: 1 hour after intravenous injection of 27.75 MBq
[2] = system: human PC-3 cells xenografted tumor; assay: In vivo anti-tumor effect in PC-3 tumor mouse model; conditions: 27.75 MBq intravenously, 2 times, every 14 days

CSCC[C@H](NC(=O)[C@H](CC(C)C)NC(=O)[C@H](Cc1c[nH]cn1)NC(=O)CNC(=O)[C@@H](NC(=O)[C@H](C)NC(=O)[C@H](Cc1c[nH]c2ccccc12)NC(=O)[C@H](CCC(N)=O)NC(=O)c1ccc(NC(=O)[C@H](CCCCNC(=O)CO[C@@H]2[C@@H](O)[C@@H](O)O[C@H](CO)[C@H]2O)NC(=O)CN2CCN(CC(=O)O)CCN(CC(=O)O)CCN(CC(=O)O)CC2)cc1)C(C)C)C(N)=O [177Lu-DOTA-gluBBN, metal not drawn]
internalized in the PC-3 cells (PC-3 cells): ≥ 80% | imaging diagnosis of tumor site (SPECT-CT) [1]: accurately diagnosed | RTV4 (time until tumor volume became 4 times) increase as compared to control group [2]: about 2 times | growth rate of tumor (tumor volume) [2]: significantly suppress a growth rate of tumor

— patent US9827338B2, “GRP-R agonistic 177-lutetium-labeled bombesin derivatives for diagnosis and treatment of prostate cancer” (KOREA ATOMIC ENERGY RESEARCH INSTITUTE, priority 2014, dated 2017)
